# Assay results published in the supplement of paper PMC12889115.
# The other results are listed elsewhere or left out. These are raw signals, not scaled to a control.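 Primary screen: polymyxin B was added at a level permeabilizing Salmonella outer membranes while sparing inner membranes. DMSO wells, both with and without polymyxin B, established maximum growth. Plate-to-plate variation meant each plate was ranked on its own, and the lowest-OD600 compounds were selected as hits.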
# System: Salmonella enterica serovar Typhimurium SL1344
# Assay: bacterial growth OD600 after 18 h with compound and polymyxin B; higher = more bacterial growth (less inhibition)
# Conditions: 50 µM, Mueller-Hinton broth
Compound,bacterial growth OD600 (polymyxin B 0.75 µg/mL),bacterial growth OD600 (polymyxin B 1 µg/mL)
Cc1ccc(N2CCC(C3CCN(CC(C)C)CC3)C2)nn1 (stereo unspecified),0.84,
COc1ccccc1C1CCCN1C(=O)CSc1ccc2nnc(-c3cccnc3)n2n1 (stereo unspecified),0.805,
O=C(c1cc(COc2ccc3ncccc3c2)on1)N1CCC(c2ccncc2)CC1,0.755,
COc1ccc2ccc(OCc3nc(C(=O)N4CCCO4)co3)cc2c1,,0.883
O=C(CCc1nnc(-c2ccc3c(c2)OCO3)o1)N1CCN(CC2CC2)CC1,,1.12
Cc1ccc(Oc2ncccc2CNCc2cnc(C)n2C)c(F)c1F,,0.86
O=C(c1cn(CC2CCCO2)nn1)N1CCC(Cc2ccccc2F)CC1 (stereo unspecified),,0.815
COc1ccccc1CCC(=O)Nc1cnn(CC(=O)NCCC(c2ccccc2)c2ccccc2)c1,0.539,
O=C(c1ccc(OC2CCN(C(=O)C3CC3)CC2)cc1)N1CCN(CC2CC2)CC1,,0.923
O=C(c1cn(CCC2CCCCC2)nn1)N1CCCC1c1ccccn1 (stereo unspecified),,0.765
COC1CCCN(C(=O)c2cc(Cl)ccc2OC2CCN(C3CCCC3)CC2)C1 (stereo unspecified),0.741,
CCOC(=O)C1(Cc2ccc(OC)cc2)CCN(C(=O)COc2ccccc2OC)CC1,0.537,
COc1ccc(Cl)cc1NC(=O)CCC1CCCN(C(=O)CCN2CCCO2)C1 (stereo unspecified),,0.844
Fc1ccc(-c2cnnc(NCCc3ccc(Cl)cc3)n2)cc1,0.007,
O=C(Cc1cccnc1)N1CCCC(Nc2ccc(F)cc2)C1 (stereo unspecified),,0.834
Cc1c[nH]c(CNC(=O)C2CCCN(C3CCN(CCc4ccccc4)CC3)C2)n1 (stereo unspecified),,0.947

Compound,bacterial growth OD600 (polymyxin B 0.75 µg/mL),bacterial growth OD600 (polymyxin B 1 µg/mL)
COc1cccc(OCC2CCCN(Cc3nc(-c4cccs4)no3)C2)c1 (stereo unspecified),,0.78
CCOC(=O)C1(Cc2ccc(F)cc2)CCCN(C(=O)c2oc(C)cc2C)C1 (stereo unspecified),,0.142
CC(=O)Nc1cccc(C(=O)NCc2cccnc2Oc2ccccc2)c1,,0.862
CCn1nc(C)c(CNC2CCN(c3ccc(C(=O)NCCN4CCOCC4)cc3)CC2)c1C,0.912,
CN1C(=O)CC(CC(=O)N2CCN(C3CCCCC3)C(=O)C2)(c2ccc(-c3ccccc3)cc2)C1=O (stereo unspecified),0.007,
CCOC(=O)C1(Cc2ccccc2)CCCN(Cc2cccc3c2OCO3)C1 (stereo unspecified),,0.729
COc1ccc(F)c(CC2(CCC(=O)NCCn3ccc4ccccc43)CCC(=O)N2)c1 (stereo unspecified),0.852,
COc1cccc(CC(C2CCN(C(=O)Cc3ccccc3C)CC2)N(C)C(=O)c2cccnc2)c1 (stereo unspecified),0.97,
CCOC(=O)C1(CCOc2ccccc2)CCCN(Cc2[nH]cnc2C)C1 (stereo unspecified),,0.484
O=C(CC1=CCCCC1)NC1CCCN(c2ncccn2)C1 (stereo unspecified),,0.875
O=C(c1ccc(NC2CCCC2)nc1)N1CCCCC1CCn1cccn1 (stereo unspecified),,0.943
COc1ccc(F)c(CC2(CCC(=O)N(C)Cc3nc4c(s3)CCCC4)CCC(=O)N2)c1 (stereo unspecified),0.843,
COc1cc(CN2CCN(Cc3cccc(O)c3)CC2CCO)cc(OC)c1 (stereo unspecified),,0.786
CN(Cc1ccccn1)C(=O)C1CCC(=O)N(CCc2ccc(Cl)cc2)C1 (stereo unspecified),,0.883
CSc1ccccc1OCc1cc(C(=O)N2CCCCC2c2nccs2)no1 (stereo unspecified),0.003,

# Fetched by compound from the entries so far (two):
Compound,bacterial growth OD600 (polymyxin B 0.75 µg/mL),bacterial growth OD600 (polymyxin B 1 µg/mL)
COc1cc(CN2CCN(Cc3cccc(O)c3)CC2CCO)cc(OC)c1 (stereo unspecified),,0.786
O=C(c1cc(COc2ccc3ncccc3c2)on1)N1CCC(c2ccncc2)CC1,0.755,
